Data published in US20120172340A1, “Compositions and Methods for Selectively Activating Human Sirtuins” (BIOMOL International L.P., priority 2004, published 2012).
Some entries share one result that the patent states for a list of compounds.

Molecular target: T1, human SIRT5 (Homo sapiens, UniProt Q9NXA8)
T1 sequence (Q9NXA8 37-310): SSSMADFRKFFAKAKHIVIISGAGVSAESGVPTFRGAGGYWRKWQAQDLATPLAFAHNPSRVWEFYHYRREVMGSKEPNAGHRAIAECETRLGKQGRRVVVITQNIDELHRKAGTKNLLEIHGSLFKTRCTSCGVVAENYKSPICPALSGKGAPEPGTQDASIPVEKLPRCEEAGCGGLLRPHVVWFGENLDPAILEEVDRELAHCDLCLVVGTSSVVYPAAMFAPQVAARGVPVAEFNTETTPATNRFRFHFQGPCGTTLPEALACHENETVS
Experiment: SIRT5 rate measurement, fluorogenic p53-382 peptide deacetylation
Assay type: biochemical
Set-up: His6 (histidine tag, 2.5 kDa) (N); made in house; host or cells: E. coli

Compound | activating SIRT5 activity as compared to controls
Cc1ccc(/C=C/c2cc(O)cc(O)c2)cc1 [BML-228, 3,5-Dihydroxy-4′-methyl-trans-stilbene] | at least 2 fold
Oc1cc(O)cc(/C=C/c2ccc3ccccc3c2)c1 [BML-218, (E)-1-(3,5-Dihydroxyphenyl)-2-(2-napthyl)ethene] | at least 2 fold
COc1cc(O)cc(/C=C/c2ccc(NC(C)=O)cc2)c1 [BML-223, 3-methoxy-5-hydroxy-4′-acetamido-trans-stilbene] | at least 2 fold
O=[N+]([O-])c1ccc(/C=C/c2cc(O)cc(O)c2)cc1 [BML-229, 3,5-Dihydroxy-4′-nitro-trans-stilbene] | at least 2 fold
CC(=O)Nc1ccc(/C=C/c2cc(O)cc(O)c2)cc1 [BML-222, 3,5-Dihydroxy-4′-acetamide-trans-stilbene] | at least 2 fold
O=c1c(O)c(-c2ccc(O)c(O)c2)oc2cc(O)ccc12 [Fisetin, 3,7,3′,4′-Tetrahydroxyflavone, reference compound] | at least 2 fold
Oc1cc(O)cc(/C=C/c2ccncc2)c1 [BML-236, (E)-1-(3,5-Dihydroxyphenyl)-2-(4-pyridyl)ethene] | at least 2 fold
CC(=O)Oc1cc(O)cc(/C=C/c2ccc(O)cc2)c1 [BML-227, 3,4′-Dihydroxy-5-acetoxy-trans-stilbene] | at least 2 fold
CSc1ccc(/C=C/c2cc(O)cc(O)c2)cc1 [BML-230, 3,5-Dihydroxy-4′-thiomethyl-trans-stilbene] | at least 2 fold
COC(=O)c1ccc(/C=C/c2cc(O)cc(O)c2)cc1 [BML-237, 3,5-Dihydroxy-4′-carbomethoxy-trans-stilbene] | at least 2 fold
Oc1cc(O)cc(/C=C/c2ccccc2)c1 [Pinosylvin, 3,5-Dihydroxy-trans-stilbene, reference compound] | at least 2 fold
CCc1ccc(/C=C/c2cc(O)cc(O)c2)cc1 [BML-225, 3,5-Dihydroxy-4′-ethyl-trans-stilbene] | at least 2 fold
CC(C)c1ccc(/C=C/c2cc(O)cc(O)c2)cc1 [BML-231, 3,5-Dihydroxy-4′-isopropyl-trans-stilbene] | at least 2 fold
O=c1c(O)c(-c2ccc(O)c(O)c2)oc2cc(O)cc(O)c12 [Quercetin, 3,5,7,3′,4′-Pentahydroxyflavone, reference compound] | at least 2 fold
Oc1cc(O)cc(/C=C/c2ccc(Cl)cc2)c1 [BML-217, 3,5-Dihydroxy-4′-chloro-trans-stilbene] | at least 2 fold
CCSc1ccc(/C=C/c2cc(O)cc(O)c2)cc1 [BML-243, 3,5-Dihydroxy-4′-thioethyl-trans-stilbene] | at least 2 fold
O=C(O)c1ccc(/C=C/c2cc(O)cc(O)c2)cc1 [BML-238, 3,5-Dihydroxy-4′-carboxy-trans-stilbene] | at least 2 fold
O=C(/C=C/c1ccc(O)c(O)c1)c1ccc(O)cc1O [Butein, 3,4,2′,4′-Tetrahydroxychalcone, reference compound] | at least 2 fold
CC(=O)Oc1ccc(/C=C/c2cc(O)cc(O)c2)cc1 [BML-221, 3,5-Dihydroxy-4′-acetoxy-trans-stilbene] | at least 2 fold
